Reference: PubChem BioAssay AID624019 (National Center for Advancing Translational Sciences (NCATS), 2012)
Listed are the inconclusive results; actives and inactives stand elsewhere. The call rests on the fitted dose curve; in most records, active means well fitted inhibition curve with a large enough effect; inconclusive means small, poorly fitted or top-dose-only effect; inactive means flat fitted curve, though single readings scatter. Where the call is inconclusive, the potency comes from a doubtful curve fit.

By UniProt entry, the sequences of proteins in these tests, tags left out.
UniProt O75874, whole entry, looked up: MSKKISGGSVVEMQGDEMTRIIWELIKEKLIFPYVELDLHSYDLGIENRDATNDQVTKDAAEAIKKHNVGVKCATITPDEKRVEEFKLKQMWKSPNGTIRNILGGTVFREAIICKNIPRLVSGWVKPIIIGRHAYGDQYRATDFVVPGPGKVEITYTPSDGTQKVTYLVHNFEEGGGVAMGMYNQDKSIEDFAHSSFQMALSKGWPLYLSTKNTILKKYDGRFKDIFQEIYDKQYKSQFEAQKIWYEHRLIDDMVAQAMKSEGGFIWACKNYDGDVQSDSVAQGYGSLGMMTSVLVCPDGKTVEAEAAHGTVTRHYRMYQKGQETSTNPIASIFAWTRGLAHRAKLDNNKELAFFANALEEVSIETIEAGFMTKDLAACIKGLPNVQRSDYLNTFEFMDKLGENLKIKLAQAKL

These compounds were tested against Isocitrate dehydrogenase [NADP] cytoplasmic (Homo sapiens) (UniProt O75874) (assay: qHTS for Inhibitors of mutant isocitrate dehydrogenase 1 (IDH1): 2HG production assay for probe SAR). Settings: IDH1 R132H mutant cells, 2-HG LC-MS, 48 h.
Text: Malignant glioblastomas (WHO grade IV), including primary and secondary glioblastomas, are among the most lethal with a median survival of one year, and unfortunately they are also the most prevalent type of brain tumors. By and large the standard of care of gliomas remains the use of the oral alkylating agent temozolomide and radiotherapy following surgical tumor resection. There is an urgent unmet medical need for novel therapeutics for gliomas. IDH mutations occur in up to 70% of grade II-IV secondary glioblastomas, and IDH1 R132H is the most prevalent mutation. […] Wild-type (WT) IDH1 catalyzes the conversion of isocitrate to -ketoglutarate with the concomitant reduction of NADP+ to NADPH. In contrast, IDH1 R132H catalyzes the conversion of -ketoglutarate to 2-hydroxyglutarate (2-HG) with the concomitant oxidation of NADPH to NADP+ [5]. Recently, a second significant advancement for the field was the finding that IDH is an oncogene, and that its metabolic product 2-HG may contribute to the pathogenesis of IDH-mutated cancers. […] Although this link to cancer is tantalizing, the direct evidence of how 2-HG drives pathogenesis of gliomas and AML remains a subject of further research. The goal of this cell assay is to identify whether the small-molecule inhibitors of IDH1 R132H impact the amount of product 2-HG that is secreted relative to DMSO control. Compounds were screened as concentration-titration series that ranged from 50 microM to 10 nM. NIH Molecular Libraries Probe Production Network [MLPCN] NIH Chemical Genomics Center [NCGC] MLSCN Grant: R03 DA032129 PI Name: Dr. Lenny Dang
Cells were dispensed into 96-well black solid bottom plates at 2500 cells/well (RPMI medium with 10% FBS). The plates were incubated overnight at 37 °C and 5% CO2. […] From each well 100 microL was removed and used for LC-MS analysis to quantitate the amount of 2-HG product. […] The concentration-response curves were then classified based on curve quality (r2), response magnitude and degree of measured activity, and compounds were subsequently categorized based on their curve class. […]

Potency, inconclusive:
Cc1nc(C)c(C(=O)N(c2cccc(F)c2)C(C(=O)NC2CCCCC2)c2ccccc2)s1 (stereo not drawn) 7.06 µM [inhibitor]
Cc1ccccc1C(C(=O)NCc1ccccc1)N(C(=O)Cc1cccs1)c1cccc(F)c1 (stereo not drawn) 1.19 µM [inhibitor]
Cc1ccccc1C(C(=O)NC1CCCC1)N(C(=O)Cc1cccs1)c1ccccc1 (stereo not drawn) 1.45 µM [inhibitor]
